Experimental data from PubChem BioAssay (EPA / NIEHS).
For part of these data: This list holds what a sample rich in hits left over. Inconclusive results are not listed. The list shows a part of the results, in another mix than the full data. Active and inactive are the calls of the source. How the source made its calls, unless noted: active means hit-call score of the fitted dose curve at least 0.9, where 1 is the maximum; inactive means score below 0.9.

Chains of the proteins cited; added tags and fusions are not shown.
UniProt P49327, whole entry, looked up: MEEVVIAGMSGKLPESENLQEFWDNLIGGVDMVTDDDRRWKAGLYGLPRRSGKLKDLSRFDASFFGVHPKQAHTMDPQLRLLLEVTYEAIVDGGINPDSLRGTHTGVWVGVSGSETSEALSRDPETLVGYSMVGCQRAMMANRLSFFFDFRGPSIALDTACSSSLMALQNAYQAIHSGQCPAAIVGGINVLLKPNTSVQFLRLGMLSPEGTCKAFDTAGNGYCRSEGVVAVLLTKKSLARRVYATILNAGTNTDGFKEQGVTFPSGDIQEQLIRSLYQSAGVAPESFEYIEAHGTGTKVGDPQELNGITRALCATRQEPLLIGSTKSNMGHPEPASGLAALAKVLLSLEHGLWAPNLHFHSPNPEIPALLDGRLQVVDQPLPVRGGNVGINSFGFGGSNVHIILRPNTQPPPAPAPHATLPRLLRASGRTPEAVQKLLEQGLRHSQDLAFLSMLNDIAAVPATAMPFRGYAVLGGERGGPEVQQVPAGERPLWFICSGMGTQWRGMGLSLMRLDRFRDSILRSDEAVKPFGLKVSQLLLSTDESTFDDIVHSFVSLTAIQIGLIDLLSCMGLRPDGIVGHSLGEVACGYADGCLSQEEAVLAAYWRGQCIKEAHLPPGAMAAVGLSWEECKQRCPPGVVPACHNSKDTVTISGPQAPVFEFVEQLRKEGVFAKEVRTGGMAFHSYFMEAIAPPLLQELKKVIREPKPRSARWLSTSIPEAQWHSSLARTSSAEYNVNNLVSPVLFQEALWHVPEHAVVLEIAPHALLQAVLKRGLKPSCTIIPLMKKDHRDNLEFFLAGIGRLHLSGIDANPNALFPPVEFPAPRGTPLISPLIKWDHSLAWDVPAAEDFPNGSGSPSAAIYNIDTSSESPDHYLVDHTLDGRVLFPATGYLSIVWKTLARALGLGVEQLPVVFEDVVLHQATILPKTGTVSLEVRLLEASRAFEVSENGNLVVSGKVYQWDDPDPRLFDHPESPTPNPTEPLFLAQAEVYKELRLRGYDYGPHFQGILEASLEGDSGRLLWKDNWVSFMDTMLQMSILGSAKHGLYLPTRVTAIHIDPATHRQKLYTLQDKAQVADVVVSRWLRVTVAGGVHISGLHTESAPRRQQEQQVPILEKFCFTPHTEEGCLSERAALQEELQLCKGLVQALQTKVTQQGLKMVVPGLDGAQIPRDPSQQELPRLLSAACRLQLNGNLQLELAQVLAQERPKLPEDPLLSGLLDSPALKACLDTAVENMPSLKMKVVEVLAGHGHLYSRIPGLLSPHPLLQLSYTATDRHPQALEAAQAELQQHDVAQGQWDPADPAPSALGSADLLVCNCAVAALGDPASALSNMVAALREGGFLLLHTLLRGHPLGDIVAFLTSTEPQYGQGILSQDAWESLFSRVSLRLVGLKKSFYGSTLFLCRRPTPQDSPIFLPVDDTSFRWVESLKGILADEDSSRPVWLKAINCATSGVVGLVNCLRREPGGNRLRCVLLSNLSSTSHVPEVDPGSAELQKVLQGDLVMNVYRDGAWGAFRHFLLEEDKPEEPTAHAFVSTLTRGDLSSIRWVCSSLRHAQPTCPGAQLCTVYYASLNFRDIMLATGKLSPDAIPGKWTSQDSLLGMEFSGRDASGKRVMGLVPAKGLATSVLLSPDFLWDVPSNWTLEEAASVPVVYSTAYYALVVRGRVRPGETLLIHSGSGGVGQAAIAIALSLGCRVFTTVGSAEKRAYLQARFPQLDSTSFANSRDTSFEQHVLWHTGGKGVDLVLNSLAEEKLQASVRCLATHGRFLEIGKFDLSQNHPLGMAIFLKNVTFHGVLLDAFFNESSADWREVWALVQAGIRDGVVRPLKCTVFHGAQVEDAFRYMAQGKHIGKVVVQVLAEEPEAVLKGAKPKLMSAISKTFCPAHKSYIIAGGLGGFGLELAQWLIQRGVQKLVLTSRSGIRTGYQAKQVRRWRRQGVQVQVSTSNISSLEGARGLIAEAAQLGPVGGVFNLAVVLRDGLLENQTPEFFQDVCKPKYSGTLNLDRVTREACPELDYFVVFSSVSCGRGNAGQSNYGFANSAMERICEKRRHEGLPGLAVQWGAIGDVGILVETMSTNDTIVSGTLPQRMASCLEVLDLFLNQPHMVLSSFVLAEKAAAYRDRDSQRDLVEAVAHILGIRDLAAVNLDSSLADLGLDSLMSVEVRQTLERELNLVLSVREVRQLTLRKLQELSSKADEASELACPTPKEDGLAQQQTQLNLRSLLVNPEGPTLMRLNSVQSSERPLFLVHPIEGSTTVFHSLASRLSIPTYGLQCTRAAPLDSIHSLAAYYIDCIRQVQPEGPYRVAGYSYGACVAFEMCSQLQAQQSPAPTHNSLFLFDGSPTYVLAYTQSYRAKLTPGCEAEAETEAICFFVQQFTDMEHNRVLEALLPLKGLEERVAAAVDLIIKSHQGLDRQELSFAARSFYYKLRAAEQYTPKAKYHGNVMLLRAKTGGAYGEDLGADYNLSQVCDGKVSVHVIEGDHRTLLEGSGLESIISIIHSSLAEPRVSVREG
UniProt P13500, whole entry, looked up: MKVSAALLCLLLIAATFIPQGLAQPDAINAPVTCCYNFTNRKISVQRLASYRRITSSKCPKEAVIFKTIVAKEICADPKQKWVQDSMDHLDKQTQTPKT
UniProt Q92731, whole entry, looked up: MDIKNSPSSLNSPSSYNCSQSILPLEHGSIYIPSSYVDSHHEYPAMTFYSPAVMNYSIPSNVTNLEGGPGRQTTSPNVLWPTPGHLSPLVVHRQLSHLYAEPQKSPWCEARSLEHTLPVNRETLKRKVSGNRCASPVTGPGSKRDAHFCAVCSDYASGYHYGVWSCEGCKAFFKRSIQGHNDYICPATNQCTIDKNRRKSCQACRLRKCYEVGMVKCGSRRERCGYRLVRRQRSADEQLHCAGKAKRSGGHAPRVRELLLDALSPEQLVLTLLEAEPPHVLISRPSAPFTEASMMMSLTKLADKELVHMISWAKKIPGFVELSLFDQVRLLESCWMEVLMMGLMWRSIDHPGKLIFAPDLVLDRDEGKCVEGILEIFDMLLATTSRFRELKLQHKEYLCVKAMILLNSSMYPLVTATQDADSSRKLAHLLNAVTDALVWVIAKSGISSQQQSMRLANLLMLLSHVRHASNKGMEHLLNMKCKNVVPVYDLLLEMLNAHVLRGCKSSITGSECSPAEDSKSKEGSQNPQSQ

Experiments:
[1] = BSK_3C_SRB: Viability Assessment in the BioMAP Diversity Plus: 3C Assay (AID 2283023); settings: primary human endothelial cells (HUVEC);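 further: fitted both ways against DMSO so a hit may be signal rise or drop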
Summary of the method: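 Cytotoxicity readout in parallel HUVEC 3C cultures: after 24 h compound exposure, cells fixed with 10% TCA, stained with 0.1% SRB and read at 560 nm. Gain or loss relative to DMSO fitted.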

[2] = read-out: Fatty acid synthase (Homo sapiens) (UniProt P49327); assay: LTEA_HepaRG_FASN: Life Technologies and Expression Analysis (LTEA) Assay for Fatty Acid Synthase (FASN) using HepaRG (AID 2283448); settings: actives raise or lower the signal; mRNA level, 48 h
Summary of the method: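 HepaRG, 48 h exposure, 8-pt half-log series top 100 uM, 0.5% DMSO vehicle, duplicates. Readout: FASN transcript by Fluidigm qRT-PCR; housekeeping-normalized; bidirectional curve fit vs DMSO baseline.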

[3] = read-out: Urokinase-type plasminogen activator receptor (uPAR), PLAUR (gene 5329); assay: BSK_BE3C_uPAR: BioMAP Diversity Plus: BE3C Assay for Urokinase-type plasminogen activator receptor (uPAR) Biomarker Activity (AID 2283039); settings: actives raise or lower the signal; primary human bronchial epithelial cells;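 further: uPAR protein level measured by ELISA on the cells; cells exposed to compound for one day before measurement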
Summary of the method: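 ELISA readout of uPAR on human lung primary bronchial epithelial cells, 24 h post-dosing. Bidirectional curve fit relative to DMSO vehicle baseline; gain or loss of signal both scored.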

[4] = read-out: Pselectin, SELP (gene 6403); assay: BSK_4H_Pselectin: BioMAP Diversity Plus: 4H Assay for Pselectin Biomarker Activity (AID 2283026); settings: actives raise or lower the signal; primary human endothelial cells (HUVEC)
Summary of the method: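 HUVEC, 24 h chemical exposure; P-selectin read by ELISA. Bidirectional curve fit vs DMSO baseline; gain or loss of signal scored.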

[5] = read-out: Vascular endothelial growth factor receptor 2 (Homo sapiens) (UniProt P35968); assay: BSK_4H_VEGFRII: BioMAP Diversity Plus: 4H Assay for Vascular endothelial growth factor receptor 2 (VEGFR2) Biomarker Activity (AID 2283031); settings: actives raise or lower the signal; primary human endothelial cells (HUVEC);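 further: cell-surface VEGFR2 protein level quantified by ELISA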
Summary of the method: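 Measured by ELISA after 24 h of compound treatment: VEGFR2 on primary human umbilical vein endothelial cells, fitted in both directions relative to DMSO. Parallel cultures received SRB staining (560 nm) for overt cytotoxicity.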

[6] = read-out: C-C motif chemokine 2 (Homo sapiens) (UniProt P13500); assay: BSK_KF3CT_MCP1: BioMAP Diversity Plus: KF3CT Assay for Monocyte Chemoattractant Protein 1 (MCP1/CCL2) Biomarker Activity (AID 2283073); settings: actives raise or lower the signal; primary human keratinocytes with fibroblasts
Summary of the method: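 ELISA read-out of MCP-1, 24 h post-dose, in primary human skin keratinocytes co-cultured with fibroblasts. Parallel SRB staining monitors cytotoxicity; changes fitted both directions relative to DMSO.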

[7] = target: Estrogen receptor beta (Homo sapiens) (UniProt Q92731); assay: OT_ER_ERbERb_0480: Odyssey Thera (OT) 8-hour HEK293T Protein-Complementation Assay for Estrogen Receptor-beta/-beta Homodimer (AID 2283357; active means hit-call score of the fitted dose curve at least 0.9, where 1 is the maximum;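 further: active means signal gain over DMSO baseline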)
Summary of the method: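 Fluorescence gain from complemented reporter fragments on ER-beta LBD homodimer in HEK293T was quantified against DMSO controls after 8 h treatment, fixation in 4% formaldehyde and Draq5 staining.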

[8] = target: Estrogen receptor beta (Homo sapiens) (UniProt Q92731); assay: OT_ER_ERbERb_1440: Odyssey Thera (OT) 24-hour HEK293T Protein-Complementation Assay for Estrogen Receptor-beta/-beta Homodimer (AID 2283380; active means hit-call score of the fitted dose curve at least 0.9, where 1 is the maximum;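 further: fluorescence gain from ER beta LBD homodimer complementation read by laser scanning cytometry; scored as signal increase over DMSO baseline for both agonists and antagonists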)
Summary of the method: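 HEK293T cells stably expressing human ER-beta LBD (aa 310-547) PCA homodimer pair, dosed 24 h; formaldehyde-fixed, Draq5-stained. Readout: increase in nuclear (agonist) or nuclear plus cytoplasmic (antagonist) fluorescence intensity versus DMSO, gain-of-signal fitting.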

[9] = read-out: urokinase plasminogen activator (uPA), PLAU (gene 5328); assay: BSK_BE3C_uPA: BioMAP Diversity Plus: BE3C Assay for urokinase plasminogen activator (uPA) Biomarker Activity (AID 2283038); settings: actives raise or lower the signal; primary human bronchial epithelial cells;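 further: uPA protein level quantified by ELISA in cell cultures; uPA read one day after compound addition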
Summary of the method: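 ELISA for uPA on human primary bronchial epithelial cultures 24 h post-treatment, gain or loss against DMSO. Parallel SRB staining (0.1% after 10% TCA fixation, 560 nm) assessed overt cytotoxicity.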

[10] = read-out: Vascular cell adhesion molecule 1 (VCAM1), VCAM1 (gene 7412); assay: BSK_4H_VCAM1: BioMAP Diversity Plus: 4H Assay for Vascular cell adhesion molecule 1 (VCAM1) Biomarker Activity (AID 2283033); settings: actives raise or lower the signal; primary human endothelial cells (HUVEC)
Summary of the method: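 HUVEC, 24 h post-dose; VCAM-1 by ELISA. Bidirectional curve fit vs DMSO baseline. Parallel SRB total-protein stain (0.1% SRB after 10% TCA fixation, 560 nm) for cytotoxicity.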

[11] = TOX21_p53_BLA_p5_viability: Viability Assessment in the Tox21 HCT-116 p53 Agonism Beta-lactamase Assay, Phase 5 (AID 2283600; active means hit-call score of the fitted dose curve at least 0.9, where 1 is the maximum)
Summary of the method: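 Viability came from CellTiter-Glo ATP luminescence, read after 30 min at room temperature. Before this, HCT-116 p53-bla cells (4000/well) had 16 hours of compound exposure at 37C, with DMSO stocks diluted 217-fold on transfer.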

[12] = CCTE_Harrill_HTTr_Apoptosis_MCF7: CCTE's 6-hour Apoptosis Assessment for the High-Throughput Transcriptomics (HTTr) Platform, in MCF-7 cells cultured in DMEM + 10% fetal bovine serum, Harrill Lab (AID 2284011)
Summary of the method: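 High-content imaging of CellEvent Caspase 3/7 Green signal follows a six-hour exposure, with eight concentrations per chemical. MCF-7 cells grown in DMEM plus 10% fetal bovine serum; activity fitted in both directions against DMSO.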

## COP(=S)(OC)Oc1ccc(SC)c(C)c1
[1]
  AC50: active: 20 µM
[2]
  outcome: inactive

## O=[N+]([O-])c1ccc(Cl)c(Cl)c1
[3]
  outcome: inactive

## CCCCOC(=O)COC(=O)c1ccccc1C(=O)OCCCC
[4]
  outcome: inactive

## CCCCCCCCCc1ccc(O)cc1
[5]
  AC50: active: 12.3 µM
[6]
  AC50: active: 15.8 µM
[7]
  AC50: active: 12.8 µM
[8]
  AC50: active: 11.3 µM

## Cc1ccccc1N
[9]
  outcome: inactive

## CCCCCCCCCC[N+](C)(C)CCCCCCCCCC
[10]
  AC50: active: 4.87 µM
[11]
  AC50: active: 46.1 µM
[12]
  outcome: inactive
